The assay concerns the target CD93 (human (endogenous in HDMECs and HDBECs)) (UniProt Q9NPY3). Put plainly: affinity purification with mass spectrometry; total protein extract of subconfluent HDMECs immunoprecipitated with mouse anti-human CD93 antibody (MBL D198-3) or control mouse IgG, Pierce co-IP kit; LC-Orbitrap MS/MS; 5 independent experiments.

Sequences of proteins named here, by UniProt entry; tags and fusion partners are left off. Residues count along the entry.
UniProt Q9NPY3, residues 22-652: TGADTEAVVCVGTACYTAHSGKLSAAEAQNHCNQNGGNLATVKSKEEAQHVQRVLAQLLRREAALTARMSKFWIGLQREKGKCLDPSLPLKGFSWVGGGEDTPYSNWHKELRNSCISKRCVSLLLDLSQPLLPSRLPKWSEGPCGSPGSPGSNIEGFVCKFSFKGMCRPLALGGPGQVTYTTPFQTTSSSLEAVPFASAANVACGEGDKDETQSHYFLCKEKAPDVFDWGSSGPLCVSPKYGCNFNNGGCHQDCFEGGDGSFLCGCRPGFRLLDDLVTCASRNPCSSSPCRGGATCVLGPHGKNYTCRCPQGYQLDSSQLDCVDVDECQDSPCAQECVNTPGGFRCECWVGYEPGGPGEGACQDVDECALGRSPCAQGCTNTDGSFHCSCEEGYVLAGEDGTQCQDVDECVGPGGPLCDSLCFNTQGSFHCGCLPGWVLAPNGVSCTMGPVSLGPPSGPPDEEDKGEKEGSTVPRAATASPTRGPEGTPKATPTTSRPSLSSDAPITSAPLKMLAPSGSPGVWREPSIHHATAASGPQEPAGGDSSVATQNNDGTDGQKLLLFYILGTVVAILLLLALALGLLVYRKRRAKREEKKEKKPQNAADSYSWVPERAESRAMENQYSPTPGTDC
UniProt P02751, residues 32-2477: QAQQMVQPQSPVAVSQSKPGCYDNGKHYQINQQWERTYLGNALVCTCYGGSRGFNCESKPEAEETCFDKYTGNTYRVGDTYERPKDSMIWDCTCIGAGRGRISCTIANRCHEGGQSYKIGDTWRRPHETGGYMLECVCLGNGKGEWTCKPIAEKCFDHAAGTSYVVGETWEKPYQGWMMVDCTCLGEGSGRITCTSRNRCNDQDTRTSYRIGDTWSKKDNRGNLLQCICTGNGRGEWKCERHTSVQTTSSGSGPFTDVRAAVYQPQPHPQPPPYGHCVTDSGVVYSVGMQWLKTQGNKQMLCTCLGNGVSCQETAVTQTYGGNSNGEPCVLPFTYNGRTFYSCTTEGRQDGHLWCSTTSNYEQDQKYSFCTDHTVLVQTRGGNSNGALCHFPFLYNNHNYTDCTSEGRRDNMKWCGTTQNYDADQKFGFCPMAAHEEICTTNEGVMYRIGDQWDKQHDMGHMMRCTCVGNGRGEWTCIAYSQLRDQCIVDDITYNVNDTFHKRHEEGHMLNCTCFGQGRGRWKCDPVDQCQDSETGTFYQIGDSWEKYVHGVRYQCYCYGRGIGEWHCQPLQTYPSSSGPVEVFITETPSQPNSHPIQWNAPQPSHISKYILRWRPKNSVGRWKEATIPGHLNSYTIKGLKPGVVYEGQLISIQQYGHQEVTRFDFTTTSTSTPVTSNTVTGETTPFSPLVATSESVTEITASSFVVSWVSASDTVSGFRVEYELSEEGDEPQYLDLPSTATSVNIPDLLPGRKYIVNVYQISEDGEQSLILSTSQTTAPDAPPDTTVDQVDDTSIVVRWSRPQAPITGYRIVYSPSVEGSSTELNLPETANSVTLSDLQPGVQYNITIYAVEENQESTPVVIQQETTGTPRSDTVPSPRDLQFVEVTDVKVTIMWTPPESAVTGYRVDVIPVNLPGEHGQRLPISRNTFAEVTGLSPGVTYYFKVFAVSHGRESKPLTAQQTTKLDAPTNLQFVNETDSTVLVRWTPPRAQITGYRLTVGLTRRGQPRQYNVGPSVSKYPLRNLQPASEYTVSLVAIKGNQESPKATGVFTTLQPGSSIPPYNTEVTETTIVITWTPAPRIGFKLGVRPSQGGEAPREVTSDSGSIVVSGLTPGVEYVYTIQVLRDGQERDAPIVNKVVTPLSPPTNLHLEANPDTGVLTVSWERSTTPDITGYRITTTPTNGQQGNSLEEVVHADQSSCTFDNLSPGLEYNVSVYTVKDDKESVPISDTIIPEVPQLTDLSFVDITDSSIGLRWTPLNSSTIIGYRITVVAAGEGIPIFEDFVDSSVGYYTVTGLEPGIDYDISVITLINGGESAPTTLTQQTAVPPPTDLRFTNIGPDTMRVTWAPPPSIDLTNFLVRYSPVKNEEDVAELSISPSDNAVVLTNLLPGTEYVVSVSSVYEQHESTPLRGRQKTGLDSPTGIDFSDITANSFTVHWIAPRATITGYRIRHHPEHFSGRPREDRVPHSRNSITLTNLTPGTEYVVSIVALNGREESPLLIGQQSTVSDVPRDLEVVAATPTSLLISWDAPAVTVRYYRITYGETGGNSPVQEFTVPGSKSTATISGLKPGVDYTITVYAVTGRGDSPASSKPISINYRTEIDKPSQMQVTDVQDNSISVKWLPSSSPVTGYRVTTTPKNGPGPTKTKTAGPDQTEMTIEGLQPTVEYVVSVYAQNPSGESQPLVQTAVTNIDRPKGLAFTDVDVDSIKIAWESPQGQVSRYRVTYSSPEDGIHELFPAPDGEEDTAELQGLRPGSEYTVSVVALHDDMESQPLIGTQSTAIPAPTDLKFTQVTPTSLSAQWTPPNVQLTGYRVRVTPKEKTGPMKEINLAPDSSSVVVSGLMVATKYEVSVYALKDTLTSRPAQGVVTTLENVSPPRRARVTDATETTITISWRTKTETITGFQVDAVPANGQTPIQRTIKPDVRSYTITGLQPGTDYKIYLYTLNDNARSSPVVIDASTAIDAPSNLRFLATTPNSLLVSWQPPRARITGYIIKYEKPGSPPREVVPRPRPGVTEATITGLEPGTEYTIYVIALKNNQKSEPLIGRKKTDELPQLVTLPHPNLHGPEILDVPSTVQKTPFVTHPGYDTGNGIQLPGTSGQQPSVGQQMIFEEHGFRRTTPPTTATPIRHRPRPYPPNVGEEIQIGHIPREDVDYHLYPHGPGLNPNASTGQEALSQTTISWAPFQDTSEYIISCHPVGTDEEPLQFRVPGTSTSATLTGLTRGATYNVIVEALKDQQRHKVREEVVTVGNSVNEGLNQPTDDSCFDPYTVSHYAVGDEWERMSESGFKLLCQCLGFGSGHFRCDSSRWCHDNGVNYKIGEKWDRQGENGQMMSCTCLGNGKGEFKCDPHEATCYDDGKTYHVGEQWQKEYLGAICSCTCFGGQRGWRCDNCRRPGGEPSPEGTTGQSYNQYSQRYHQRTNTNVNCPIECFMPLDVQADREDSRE
UniProt Q9H8L6, residues 23-949: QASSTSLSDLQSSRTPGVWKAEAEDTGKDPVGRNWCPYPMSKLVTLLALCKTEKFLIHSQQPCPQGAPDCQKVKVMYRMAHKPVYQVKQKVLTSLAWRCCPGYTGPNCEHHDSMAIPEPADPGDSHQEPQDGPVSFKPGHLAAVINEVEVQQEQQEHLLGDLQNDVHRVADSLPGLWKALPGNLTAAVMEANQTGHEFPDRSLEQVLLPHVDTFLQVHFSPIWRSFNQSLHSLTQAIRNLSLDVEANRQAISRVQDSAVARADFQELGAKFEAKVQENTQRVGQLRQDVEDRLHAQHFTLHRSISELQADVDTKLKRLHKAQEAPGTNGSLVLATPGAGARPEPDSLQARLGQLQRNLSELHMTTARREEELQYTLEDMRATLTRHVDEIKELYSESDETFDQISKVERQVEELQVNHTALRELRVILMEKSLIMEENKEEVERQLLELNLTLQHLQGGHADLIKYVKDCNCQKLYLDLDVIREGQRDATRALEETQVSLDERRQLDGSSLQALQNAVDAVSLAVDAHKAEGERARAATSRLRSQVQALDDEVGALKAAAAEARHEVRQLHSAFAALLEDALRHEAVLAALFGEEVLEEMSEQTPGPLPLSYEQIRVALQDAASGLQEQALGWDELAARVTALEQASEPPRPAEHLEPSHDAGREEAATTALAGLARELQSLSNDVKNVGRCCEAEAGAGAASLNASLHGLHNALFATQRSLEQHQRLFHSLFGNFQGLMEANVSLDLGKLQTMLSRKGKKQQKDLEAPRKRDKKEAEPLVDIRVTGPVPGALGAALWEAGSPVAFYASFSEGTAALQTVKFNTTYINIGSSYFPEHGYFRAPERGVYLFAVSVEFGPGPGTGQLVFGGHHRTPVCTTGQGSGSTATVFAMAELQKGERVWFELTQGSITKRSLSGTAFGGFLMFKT

These are yes or no findings as the source states them, for the method shown. Binding seen in cells or lysates may run through a third protein. Here binding means that the protein was enriched with, or labelled near, the bait; the list need not be complete. A no says only that the protein was not detected with the bait.

On to “fibronectin (from UniProt P02751 32-2477)”, for which the binding result is given as “no binding”.
To “multimerin-2 (from UniProt Q9H8L6 23-949)” belongs “binds”.

The values are drawn from publication PMC6063507.
